We go through one compound from patent publication US20220338473A1, “USE OF BENZYL ALCOHOL AS A HERBICIDE” (INNOVI, priority 2019, published 2022).

Molecules are shown by their SMILES.

For this data set, the system named is Barley and rapeseed seeds. Briefly: Intercrop herbicide activity: seeding period after soil treatment. The data set is classed as in vivo.

As to `OCc1ccccc1` [benzyl alcohol], the “Days of waiting before seeding (seeding period when 70% of the seeds sown germinate)” value runs as follows: (potting soil treated with 100 L/Ha pure benzyl alcohol) 5 days; (potting soil treated with 200 L/Ha pure benzyl alcohol) 7 days; (potting soil treated with 300 L/Ha pure benzyl alcohol) 15 days; (potting soil treated with less than 100 L/Ha pure benzyl alcohol) 5 days; (potting soil treated with more than 300 L/Ha pure benzyl alcohol) 15 days.
